These results are taken from article PMC12520810.

Chains of the proteins cited; added tags and fusions are not shown.
UniProt Q9QZL0: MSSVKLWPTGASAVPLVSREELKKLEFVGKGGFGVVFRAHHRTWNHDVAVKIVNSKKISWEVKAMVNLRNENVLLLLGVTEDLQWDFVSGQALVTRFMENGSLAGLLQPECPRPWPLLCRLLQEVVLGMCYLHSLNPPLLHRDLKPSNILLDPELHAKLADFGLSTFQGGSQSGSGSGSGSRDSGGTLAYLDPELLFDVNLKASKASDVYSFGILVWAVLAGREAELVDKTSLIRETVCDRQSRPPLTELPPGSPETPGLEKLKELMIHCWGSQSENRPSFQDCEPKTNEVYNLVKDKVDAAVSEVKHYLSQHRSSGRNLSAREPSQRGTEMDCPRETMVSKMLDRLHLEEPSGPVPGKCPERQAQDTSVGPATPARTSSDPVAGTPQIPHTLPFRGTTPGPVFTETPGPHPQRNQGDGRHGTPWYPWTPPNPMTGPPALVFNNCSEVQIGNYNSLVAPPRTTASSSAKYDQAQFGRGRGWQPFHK

In the assay the target is T1, FLAG-tagged Z-nucleic acid-binding protein 1 (ZBP1) (mouse (cDNA from BV2 microglial cells)) (UniProt Q9QY24).
T1 sequence: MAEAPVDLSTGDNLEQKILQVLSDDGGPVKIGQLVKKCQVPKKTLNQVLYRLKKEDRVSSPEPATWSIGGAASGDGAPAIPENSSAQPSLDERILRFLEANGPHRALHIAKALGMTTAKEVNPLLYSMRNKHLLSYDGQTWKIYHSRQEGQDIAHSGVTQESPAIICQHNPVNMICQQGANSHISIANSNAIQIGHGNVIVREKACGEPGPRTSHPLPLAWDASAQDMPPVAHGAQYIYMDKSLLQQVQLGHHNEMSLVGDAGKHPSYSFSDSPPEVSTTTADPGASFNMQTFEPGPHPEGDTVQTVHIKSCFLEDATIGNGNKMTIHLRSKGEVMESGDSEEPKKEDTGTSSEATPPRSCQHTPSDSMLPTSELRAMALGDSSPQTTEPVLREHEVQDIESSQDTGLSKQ
The experiment in a line: co-IP.

No constants are given. Whether binding was seen depends on the method and setting. Binding seen in cells or lysates may run through a third protein. Some entries that bind do so weakly or less than the wild type. Sequences can lack the tags named with a protein.

As to “HA-tagged receptor-interacting protein kinase 3 (RIPK3) (from UniProt Q9QZL0 1-486)”, the binding entry was “binds”.
